Experimental data: the supplement of paper PMC10849652
This is one part of the list. Residues, ends and D or L forms follow the SMILES beside them. *: point of attachment. Cbz = O=C(OCc1ccccc1)*

The chains behind the UniProt entries cited, without tags or fusion partners. Where a name states a change or a piece, a line headed by the entry shows the natural chain unless it says otherwise.
UniProt O75165, whole entry, looked up: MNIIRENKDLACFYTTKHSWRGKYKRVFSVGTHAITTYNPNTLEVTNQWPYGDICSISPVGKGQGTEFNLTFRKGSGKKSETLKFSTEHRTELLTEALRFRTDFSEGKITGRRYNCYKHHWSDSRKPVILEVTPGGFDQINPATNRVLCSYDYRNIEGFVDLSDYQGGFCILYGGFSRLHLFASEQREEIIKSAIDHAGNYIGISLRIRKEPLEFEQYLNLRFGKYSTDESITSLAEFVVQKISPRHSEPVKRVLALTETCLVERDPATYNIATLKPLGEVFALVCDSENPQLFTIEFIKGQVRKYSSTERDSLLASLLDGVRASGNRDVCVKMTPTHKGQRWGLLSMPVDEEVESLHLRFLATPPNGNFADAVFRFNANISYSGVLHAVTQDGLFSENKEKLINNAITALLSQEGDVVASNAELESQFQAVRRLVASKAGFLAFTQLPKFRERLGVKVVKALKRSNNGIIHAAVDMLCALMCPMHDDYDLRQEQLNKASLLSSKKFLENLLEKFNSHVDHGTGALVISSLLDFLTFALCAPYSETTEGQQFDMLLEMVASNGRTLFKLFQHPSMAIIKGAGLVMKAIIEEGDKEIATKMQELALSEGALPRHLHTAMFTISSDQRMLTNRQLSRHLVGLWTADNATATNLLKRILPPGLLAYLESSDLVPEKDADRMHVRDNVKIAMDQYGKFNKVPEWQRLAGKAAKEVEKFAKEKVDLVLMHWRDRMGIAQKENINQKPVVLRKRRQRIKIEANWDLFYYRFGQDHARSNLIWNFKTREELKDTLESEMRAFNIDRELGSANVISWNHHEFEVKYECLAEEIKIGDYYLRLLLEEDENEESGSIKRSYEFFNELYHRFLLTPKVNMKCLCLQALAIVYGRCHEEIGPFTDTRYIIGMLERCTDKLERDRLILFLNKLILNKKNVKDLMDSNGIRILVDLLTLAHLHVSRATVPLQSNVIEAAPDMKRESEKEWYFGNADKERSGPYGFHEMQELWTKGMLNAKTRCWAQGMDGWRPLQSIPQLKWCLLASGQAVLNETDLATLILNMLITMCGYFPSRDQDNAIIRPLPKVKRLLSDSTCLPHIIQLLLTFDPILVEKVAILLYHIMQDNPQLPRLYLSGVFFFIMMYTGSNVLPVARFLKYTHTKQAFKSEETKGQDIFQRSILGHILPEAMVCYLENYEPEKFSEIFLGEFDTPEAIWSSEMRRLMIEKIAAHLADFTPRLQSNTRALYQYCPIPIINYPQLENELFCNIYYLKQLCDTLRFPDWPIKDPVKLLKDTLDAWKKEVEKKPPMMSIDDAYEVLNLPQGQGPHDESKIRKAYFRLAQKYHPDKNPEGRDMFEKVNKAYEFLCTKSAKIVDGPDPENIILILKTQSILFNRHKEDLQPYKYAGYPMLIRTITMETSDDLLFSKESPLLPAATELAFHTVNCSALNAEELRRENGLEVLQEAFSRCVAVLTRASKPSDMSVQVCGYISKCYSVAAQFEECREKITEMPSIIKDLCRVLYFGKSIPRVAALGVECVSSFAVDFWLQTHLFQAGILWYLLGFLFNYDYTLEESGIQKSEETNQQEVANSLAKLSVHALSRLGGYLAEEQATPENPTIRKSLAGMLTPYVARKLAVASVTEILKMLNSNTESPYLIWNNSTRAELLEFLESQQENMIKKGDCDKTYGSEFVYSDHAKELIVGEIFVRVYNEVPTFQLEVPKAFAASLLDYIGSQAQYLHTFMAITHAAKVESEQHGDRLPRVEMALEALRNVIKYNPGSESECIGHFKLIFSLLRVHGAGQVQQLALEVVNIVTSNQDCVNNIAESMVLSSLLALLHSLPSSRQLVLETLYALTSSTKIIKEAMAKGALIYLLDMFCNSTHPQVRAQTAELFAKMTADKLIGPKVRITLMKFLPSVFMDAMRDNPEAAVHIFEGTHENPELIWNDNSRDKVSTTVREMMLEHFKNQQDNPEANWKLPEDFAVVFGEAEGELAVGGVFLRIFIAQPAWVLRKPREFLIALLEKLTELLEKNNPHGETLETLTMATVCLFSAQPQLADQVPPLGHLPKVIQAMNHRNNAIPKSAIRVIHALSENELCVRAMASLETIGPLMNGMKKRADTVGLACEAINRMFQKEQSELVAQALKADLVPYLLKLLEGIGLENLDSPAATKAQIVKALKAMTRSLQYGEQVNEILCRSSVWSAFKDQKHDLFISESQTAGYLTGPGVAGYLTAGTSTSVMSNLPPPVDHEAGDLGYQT
UniProt Q8TEA8: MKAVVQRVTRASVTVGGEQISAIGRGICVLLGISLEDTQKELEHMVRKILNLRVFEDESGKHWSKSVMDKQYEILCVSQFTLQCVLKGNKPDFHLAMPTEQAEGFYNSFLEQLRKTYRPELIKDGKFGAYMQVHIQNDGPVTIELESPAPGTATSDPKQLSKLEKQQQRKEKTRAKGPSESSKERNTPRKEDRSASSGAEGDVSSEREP
UniProt Q9BZG8: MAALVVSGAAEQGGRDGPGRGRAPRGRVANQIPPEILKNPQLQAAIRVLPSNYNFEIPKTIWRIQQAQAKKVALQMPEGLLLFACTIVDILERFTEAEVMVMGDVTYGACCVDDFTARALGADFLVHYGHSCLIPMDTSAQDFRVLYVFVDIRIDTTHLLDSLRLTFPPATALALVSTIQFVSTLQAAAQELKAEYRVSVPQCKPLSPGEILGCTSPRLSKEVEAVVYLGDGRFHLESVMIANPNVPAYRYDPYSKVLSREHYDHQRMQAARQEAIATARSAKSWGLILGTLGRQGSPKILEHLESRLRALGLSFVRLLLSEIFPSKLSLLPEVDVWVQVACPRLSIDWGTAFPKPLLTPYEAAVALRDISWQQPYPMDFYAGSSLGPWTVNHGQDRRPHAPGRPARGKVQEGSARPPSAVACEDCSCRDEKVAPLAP
UniProt Q9NVH1: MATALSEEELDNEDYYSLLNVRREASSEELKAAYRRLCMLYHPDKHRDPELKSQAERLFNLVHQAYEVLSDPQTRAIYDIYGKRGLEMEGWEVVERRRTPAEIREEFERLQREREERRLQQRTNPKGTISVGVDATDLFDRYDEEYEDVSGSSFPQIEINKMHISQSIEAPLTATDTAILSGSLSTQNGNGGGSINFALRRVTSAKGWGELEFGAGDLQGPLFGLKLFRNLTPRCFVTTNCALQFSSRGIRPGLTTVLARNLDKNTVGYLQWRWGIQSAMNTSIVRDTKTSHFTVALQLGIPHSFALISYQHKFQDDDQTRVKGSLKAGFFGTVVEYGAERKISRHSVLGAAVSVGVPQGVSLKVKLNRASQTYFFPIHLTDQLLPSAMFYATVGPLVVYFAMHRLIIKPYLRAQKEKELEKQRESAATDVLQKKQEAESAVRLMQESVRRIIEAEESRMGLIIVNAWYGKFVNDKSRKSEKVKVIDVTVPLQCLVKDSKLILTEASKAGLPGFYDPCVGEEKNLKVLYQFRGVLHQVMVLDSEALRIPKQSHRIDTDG
UniProt Q9NZJ0: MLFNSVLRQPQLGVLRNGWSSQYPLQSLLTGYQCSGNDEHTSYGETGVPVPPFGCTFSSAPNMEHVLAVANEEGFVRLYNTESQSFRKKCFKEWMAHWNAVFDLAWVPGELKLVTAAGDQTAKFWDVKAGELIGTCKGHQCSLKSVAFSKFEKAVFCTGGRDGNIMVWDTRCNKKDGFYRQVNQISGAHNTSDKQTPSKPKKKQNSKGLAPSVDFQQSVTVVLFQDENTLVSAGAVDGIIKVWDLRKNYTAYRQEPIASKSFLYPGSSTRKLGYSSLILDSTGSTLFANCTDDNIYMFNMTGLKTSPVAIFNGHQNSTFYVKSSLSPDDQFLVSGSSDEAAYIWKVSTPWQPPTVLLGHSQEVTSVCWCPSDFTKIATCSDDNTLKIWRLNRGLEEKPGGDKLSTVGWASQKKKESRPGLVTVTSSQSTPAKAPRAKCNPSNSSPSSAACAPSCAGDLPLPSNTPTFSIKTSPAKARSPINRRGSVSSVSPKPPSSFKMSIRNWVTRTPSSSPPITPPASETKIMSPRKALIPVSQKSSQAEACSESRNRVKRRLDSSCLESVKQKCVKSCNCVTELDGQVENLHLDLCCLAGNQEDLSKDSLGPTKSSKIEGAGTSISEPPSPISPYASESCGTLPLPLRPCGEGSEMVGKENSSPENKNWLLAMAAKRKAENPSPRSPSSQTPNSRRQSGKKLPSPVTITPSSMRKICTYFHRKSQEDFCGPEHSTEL
UniProt Q6ZPD9: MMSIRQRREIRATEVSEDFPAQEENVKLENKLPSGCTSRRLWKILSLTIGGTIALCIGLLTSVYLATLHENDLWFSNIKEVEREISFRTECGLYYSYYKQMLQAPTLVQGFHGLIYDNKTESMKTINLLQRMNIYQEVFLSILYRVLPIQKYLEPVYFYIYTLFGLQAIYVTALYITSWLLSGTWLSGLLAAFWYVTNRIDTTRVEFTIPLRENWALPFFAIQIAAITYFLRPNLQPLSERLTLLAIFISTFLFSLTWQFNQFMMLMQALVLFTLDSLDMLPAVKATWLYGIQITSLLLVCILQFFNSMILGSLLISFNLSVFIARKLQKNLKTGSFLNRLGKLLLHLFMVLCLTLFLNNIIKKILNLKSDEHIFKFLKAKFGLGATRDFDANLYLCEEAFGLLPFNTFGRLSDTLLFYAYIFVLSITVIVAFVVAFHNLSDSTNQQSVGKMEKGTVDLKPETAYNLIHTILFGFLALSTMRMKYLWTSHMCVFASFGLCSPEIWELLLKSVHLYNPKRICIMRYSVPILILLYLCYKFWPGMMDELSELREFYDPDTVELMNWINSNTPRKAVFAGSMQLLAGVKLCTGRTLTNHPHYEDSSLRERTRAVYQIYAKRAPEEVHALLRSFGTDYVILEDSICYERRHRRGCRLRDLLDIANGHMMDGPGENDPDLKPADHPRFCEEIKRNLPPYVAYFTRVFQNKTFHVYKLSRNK
UniProt O60762: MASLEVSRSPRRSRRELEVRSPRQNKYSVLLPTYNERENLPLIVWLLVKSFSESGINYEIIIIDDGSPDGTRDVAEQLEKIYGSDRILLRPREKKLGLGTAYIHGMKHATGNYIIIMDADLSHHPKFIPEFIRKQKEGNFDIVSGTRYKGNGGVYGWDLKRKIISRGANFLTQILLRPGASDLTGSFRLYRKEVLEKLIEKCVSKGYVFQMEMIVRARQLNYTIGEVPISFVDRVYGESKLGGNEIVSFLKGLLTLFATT
UniProt Q92611: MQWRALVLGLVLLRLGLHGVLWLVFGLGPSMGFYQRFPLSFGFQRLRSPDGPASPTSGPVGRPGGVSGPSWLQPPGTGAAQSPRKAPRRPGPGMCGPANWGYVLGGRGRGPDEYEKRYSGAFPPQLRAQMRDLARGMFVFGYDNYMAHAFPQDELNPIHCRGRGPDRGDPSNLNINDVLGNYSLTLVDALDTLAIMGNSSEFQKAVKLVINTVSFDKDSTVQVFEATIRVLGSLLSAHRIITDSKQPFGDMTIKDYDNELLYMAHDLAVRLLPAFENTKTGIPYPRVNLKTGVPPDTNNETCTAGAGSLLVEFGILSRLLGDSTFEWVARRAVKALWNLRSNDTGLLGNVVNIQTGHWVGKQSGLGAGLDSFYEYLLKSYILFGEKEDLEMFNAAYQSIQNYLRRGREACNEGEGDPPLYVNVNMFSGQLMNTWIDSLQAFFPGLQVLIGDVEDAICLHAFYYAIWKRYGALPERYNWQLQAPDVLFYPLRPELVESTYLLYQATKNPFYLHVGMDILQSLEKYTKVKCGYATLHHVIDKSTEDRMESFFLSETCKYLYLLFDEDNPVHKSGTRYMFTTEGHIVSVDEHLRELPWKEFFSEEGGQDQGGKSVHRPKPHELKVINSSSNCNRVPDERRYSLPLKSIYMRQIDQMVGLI
UniProt P42892: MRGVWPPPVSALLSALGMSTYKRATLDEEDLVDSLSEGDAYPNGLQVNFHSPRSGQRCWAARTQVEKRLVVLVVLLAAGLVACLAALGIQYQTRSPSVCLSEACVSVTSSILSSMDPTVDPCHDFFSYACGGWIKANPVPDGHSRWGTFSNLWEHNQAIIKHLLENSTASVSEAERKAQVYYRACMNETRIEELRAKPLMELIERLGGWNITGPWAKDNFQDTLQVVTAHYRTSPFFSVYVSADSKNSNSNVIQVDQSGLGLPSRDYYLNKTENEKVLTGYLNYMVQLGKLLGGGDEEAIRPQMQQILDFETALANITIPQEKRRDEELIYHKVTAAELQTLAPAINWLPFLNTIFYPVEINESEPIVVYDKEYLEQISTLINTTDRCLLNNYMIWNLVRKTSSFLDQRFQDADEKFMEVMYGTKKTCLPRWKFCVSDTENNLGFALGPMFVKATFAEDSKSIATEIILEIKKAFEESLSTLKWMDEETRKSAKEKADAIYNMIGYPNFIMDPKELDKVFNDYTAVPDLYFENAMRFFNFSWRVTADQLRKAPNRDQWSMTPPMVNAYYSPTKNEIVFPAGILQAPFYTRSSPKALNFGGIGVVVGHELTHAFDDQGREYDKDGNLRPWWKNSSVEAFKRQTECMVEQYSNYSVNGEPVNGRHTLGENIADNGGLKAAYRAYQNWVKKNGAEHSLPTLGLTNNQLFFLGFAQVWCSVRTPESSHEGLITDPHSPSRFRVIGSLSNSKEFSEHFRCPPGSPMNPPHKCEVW

Key:
Assay in all cases: log2 fold change, soluble protein after heating vs DMSO (PISA); higher = thermal stabilisation; K562 cells, 10 uM, 30 min; active = over 0.2 and 3.5 SD of the protein, either way, in both replicates (recomputed)
IRAK-1-4 Inhibitor I = compound: C1COCCN1CCN2C3=CC=CC=C3N=C2NC(=O)C4=CC(=CC=C4)[N+](=O)[O-] [IRAK-1-4 Inhibitor I]
Method in brief: (§1)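 Thermal stability values are relative to control samples and come from duplicates. They are expressed as log2 fold changes. For measurement, K562 cells (2×10^6 cells/mL) received 10 μM compound for 30 min, and aliquots were heated for 3 min over 48°C-58°C, pooled, and extracted at 4°C in PBS with 0.5% NP-40. Soluble protein, the supernatant after 21,000xg for 90 min, was quantified by TMTpro 16plex LC-MS/MS with equalised channel sums.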

ibrutinib = compound: C=CC(=O)N1CCC[C@@H](n2nc(-c3ccc(Oc4ccccc4)cc3)c3c(N)ncnc32)C1 [ibrutinib]
Method in brief: as §1

[1] = compound: CC(=O)c1cnc2ccc(-c3cc(Cl)c(O)c(Cl)c3)nc2c1N[C@H]1CC[C@H](CN(C)C)CC1
Method in brief: as §1

ralimetinib = compound: CC(C)(C)Cn1c(N)nc2ccc(-c3[nH]c(C(C)(C)C)nc3-c3ccc(F)cc3)nc21 [ralimetinib]
Method in brief: as §1

[2] = compound: CC(C)(O)CC(=O)NCCn1ccc2ncnc(Nc3ccc(Oc4cccc(C(F)(F)F)c4)c(Cl)c3)c21
Method in brief: as §1

[3] = compound: CC(C)C1=C2N=C(C=C(N2N=C1)NCC3=CC=CC=C3)NCCCCCCN
Method in brief: as §1

[4] = compound: CC(C)C[C@@H](C=O)NC(=O)[C@H](CC(C)C)NC(=O)[C@H](CC(C)C)NC(=O)OCc1ccccc1
Method in brief: as §1

pinometostat = compound: CC(C)N(C[C@H]1O[C@@H](n2cnc3c(N)ncnc32)[C@H](O)[C@@H]1O)[C@H]1C[C@@H](CCc2nc3cc(C(C)(C)C)ccc3[nH]2)C1 [pinometostat]
Method in brief: as §1

[5] = compound: CC1=C(C(CC(=O)N1)C2=CC=C(C=C2)C(F)(F)F)C(=O)NC3=C(C=C4C(=C3)C=NN4)F
Method in brief: as §1

[6] = compound: CC1=C(C2=C(C=C1)C(=O)C3=CC=CC=C3N2CCCN)C
Method in brief: as §1

[7] = compound: CC1=C(C=C(C=C1)NC(=O)C2=CC(=CC=C2)C(C)(C)C#N)NC3=CC4=C(C=C3)N=CN(C4=O)C
Method in brief: as §1

[8] = compound: CC1=C(C=C(C=C1)NC(=O)C2=CC(=CC=C2)N(C)C)NC(=O)C3=CC=C(C=C3)O
Method in brief: as §1

[9] = compound: CC1=CC=C(C=C1)SC2=C3C=C(SC3=CN=C2)C(=O)N
Method in brief: as §1

[10] = compound: CC1=NC(=CC=C1)C2=C(N=C(N2)C(C)(C)C)C3=CC4=NC=CN=C4C=C3
Method in brief: as §1

Nexturastat A = compound: CCCCN(Cc1ccc(C(=O)NO)cc1)C(=O)Nc1ccccc1 [Nexturastat A]
Method in brief: as §1

vemurafenib = compound: CCCS(=O)(=O)Nc1ccc(F)c(C(=O)c2c[nH]c3ncc(-c4ccc(Cl)cc4)cc23)c1F [vemurafenib]
Method in brief: as §1

[11] = compound: CCCS(=O)(=O)Nc1ccc(F)c(C(=O)c2c[nH]c3ncc(Cl)cc23)c1F
Method in brief: as §1

[12] = compound: CCCc1cc(C)[nH]c(=O)c1CNC(=O)c1cc(-c2ccnc(N3CCN(C)CC3)c2)cc2c1cnn2C(C)C
Method in brief: as §1

givinostat = compound: CCN(CC)Cc1ccc2cc(COC(=O)Nc3ccc(C(=O)NO)cc3)ccc2c1 [givinostat]
Method in brief: as §1

barasertib = compound: CCN(CCCOc1ccc2c(Nc3cc(CC(=O)Nc4cccc(F)c4)[nH]n3)ncnc2c1)CCOP(=O)(O)O [barasertib]
Method in brief: as §1

Measured: log2 fold change

DYNC1H1 (UniProt Q14204)
inactive: IRAK-1-4 Inhibitor I -0.015 | ibrutinib -0.024 | [1] 0.009 | ralimetinib 0.01 | [2] -0.052 | [3] -0.043 | [4] 0 | pinometostat 0.015 | [5] -0.005 | [6] 0.024 | [7] 0.015 | [8] -0.014 | [9] -0.001 | [10] 0 | Nexturastat A 0.005 | vemurafenib -0.003 | [11] 0.017 | [12] 0.004 | givinostat 0.016 | barasertib 0

DNAJC13 (UniProt O75165)
inactive: IRAK-1-4 Inhibitor I -0.042 | ibrutinib 0.005 | [1] 0 | ralimetinib 0.096 | [2] -0.023 | [3] 0.03 | [4] 0.024 | pinometostat 0.188 | [5] 0.038 | [6] 0.039 | [7] 0.009 | [8] 0.005 | [9] -0.032 | [10] 0.044 | Nexturastat A 0.033 | vemurafenib -0.086 | [11] 0.037 | [12] 0.038 | givinostat 0.031 | barasertib 0.06

DPP9 isoform 2 (UniProt Q86TI2)
inactive: IRAK-1-4 Inhibitor I 0.02 | ibrutinib 0.002 | [1] -0.052 | ralimetinib -0.019 | [2] -0.001 | [3] -0.02 | [4] 0.019 | pinometostat 0.047 | [5] -0.012 | [6] 0.058 | [7] -0.037 | [8] -0.032 | [9] -0.003 | [10] 0.005 | Nexturastat A 0.011 | vemurafenib 0.015 | [11] 0.001 | [12] -0.014 | givinostat 0.014 | barasertib 0.009

DTD1 (UniProt Q8TEA8)
inactive: IRAK-1-4 Inhibitor I -0.012 | ibrutinib 0.019 | [1] -0.017 | ralimetinib -0.073 | [2] -0.001 | [3] 0.124 | [4] 0 | pinometostat -0.024 | [5] 0.021 | [6] 0.013 | [7] -0.008 | [8] 0.044 | [9] 0.008 | [10] 0.03 | Nexturastat A -0.138 | vemurafenib 0.011 | [11] 0.004 | [12] -0.009 | givinostat -0.038 | barasertib 0.011

DPY19L4 (UniProt Q7Z388)
inactive: IRAK-1-4 Inhibitor I 0.137 | ibrutinib 0.043 | [1] 0.017 | ralimetinib -0.057 | [2] -0.041 | [3] 0.112 | [4] 0.031 | pinometostat -0.06 | [5] -0.173 | [6] -0.074 | [7] -0.263 | [8] -0.075 | [9] -0.152 | [10] -0.094 | Nexturastat A -0.054 | vemurafenib -0.045 | [11] -0.146 | [12] -0.017 | givinostat -0.016 | barasertib -0.029

DPH1 (UniProt Q9BZG8)
inactive: IRAK-1-4 Inhibitor I 0.029 | ibrutinib -0.031 | [1] -0.066 | ralimetinib 0.008 | [2] 0 | [3] 0.056 | [4] -0.013 | pinometostat 0.002 | [5] 0.042 | [6] -0.059 | [7] -0.033 | [8] 0.016 | [9] 0.012 | [10] 0.054 | Nexturastat A -0.06 | vemurafenib 0.093 | [11] -0.019 | [12] 0.067 | givinostat -0.185 | barasertib 0.016

DPY19L1, A0A1B0GW05
inactive: IRAK-1-4 Inhibitor I -0.009 | ibrutinib 0.014 | [1] 0.017 | ralimetinib -0.019 | [2] -0.016 | [3] -0.094 | [4] 0.158 | pinometostat 0.032 | [5] 0.063 | [6] 0.053 | [7] 0.034 | [8] 0.045 | [9] 0.008 | [10] 0.038 | Nexturastat A 0.06 | vemurafenib -0.114 | [11] 0.023 | [12] 0.013 | givinostat 0.017 | barasertib -0.012

DNAJB6 (UniProt O75190)
inactive: IRAK-1-4 Inhibitor I 0.042 | ibrutinib 0.006 | [1] -0.045 | ralimetinib -0.036 | [2] 0.022 | [3] -0.009 | [4] 0.041 | pinometostat 0 | [5] -0.012 | [6] 0.069 | [7] -0.089 | [8] 0.017 | [9] 0.006 | [10] -0.042 | Nexturastat A 0.09 | vemurafenib -0.029 | [11] 0.025 | [12] 0.053 | givinostat 0.019 | barasertib 0.024

DNAJC11 (UniProt Q9NVH1)
inactive: IRAK-1-4 Inhibitor I 0.011 | ibrutinib 0.003 | [1] -0.039 | ralimetinib -0.081 | [2] -0.015 | [3] -0.053 | [4] -0.016 | pinometostat -0.028 | [5] -0.026 | [6] 0.064 | [7] -0.038 | [8] 0.018 | [9] 0.017 | [10] 0.007 | Nexturastat A -0.104 | vemurafenib 0.007 | [11] 0 | [12] -0.018 | givinostat -0.011 | barasertib -0.008

ECSIT (UniProt Q9BQ95)
inactive: IRAK-1-4 Inhibitor I 0.067 | ibrutinib 0.061 | [1] 0.001 | ralimetinib -0.019 | [2] 0.05 | [3] 0.012 | [4] 0.018 | pinometostat -0.029 | [5] 0 | [6] 0.007 | [7] -0.029 | [8] -0.01 | [9] -0.058 | [10] 0.021 | Nexturastat A -0.023 | vemurafenib 0.01 | [11] -0.047 | [12] -0.055 | givinostat -0.011 | barasertib -0.003

DTL (UniProt Q9NZJ0)
inactive: IRAK-1-4 Inhibitor I -0.048 | ibrutinib -0.138 | [1] -0.112 | ralimetinib 0.012 | [2] -0.01 | [3] -0.114 | [4] -0.036 | pinometostat -0.003 | [5] -0.008 | [6] 0.036 | [7] -0.029 | [8] -0.046 | [9] 0.012 | [10] -0.051 | Nexturastat A 0.002 | vemurafenib -0.076 | [11] -0.059 | [12] 0.044 | givinostat -0.085 | barasertib -0.091

Reprinted from the entries so far (2 entries):
DNAJB6 (UniProt O75190)
inactive: IRAK-1-4 Inhibitor I 0.042 | ibrutinib 0.006 | [1] -0.045 | ralimetinib -0.036 | [2] 0.022 | [3] -0.009 | [4] 0.041 | pinometostat 0 | [5] -0.012 | [6] 0.069 | [7] -0.089 | [8] 0.017 | [9] 0.006 | [10] -0.042 | Nexturastat A 0.09 | vemurafenib -0.029 | [11] 0.025 | [12] 0.053 | givinostat 0.019 | barasertib 0.024

DNAJC11 (UniProt Q9NVH1)
inactive: IRAK-1-4 Inhibitor I 0.011 | ibrutinib 0.003 | [1] -0.039 | ralimetinib -0.081 | [2] -0.015 | [3] -0.053 | [4] -0.016 | pinometostat -0.028 | [5] -0.026 | [6] 0.064 | [7] -0.038 | [8] 0.018 | [9] 0.017 | [10] 0.007 | Nexturastat A -0.104 | vemurafenib 0.007 | [11] 0 | [12] -0.018 | givinostat -0.011 | barasertib -0.008

Continuation:

EAF1 (UniProt Q96JC9)
inactive: IRAK-1-4 Inhibitor I -0.009 | ibrutinib -0.054 | [1] -0.04 | ralimetinib -0.031 | [2] -0.062 | [3] 0.044 | [4] 0.017 | pinometostat -0.022 | [5] -0.019 | [6] -0.103 | [7] 0.028 | [8] 0.003 | [9] -0.039 | [10] -0.014 | Nexturastat A -0.104 | vemurafenib -0.083 | [11] -0.1 | [12] 0.006 | givinostat 0.05 | barasertib -0.008

DPY19L3 (UniProt Q6ZPD9)
inactive: IRAK-1-4 Inhibitor I -0.233 | ibrutinib -0.08 | [1] 0.042 | ralimetinib -0.117 | [2] -0.025 | [3] -0.036 | [4] 0.252 | pinometostat 0.009 | [5] 0.014 | [6] 0.081 | [7] 0.014 | [8] 0.08 | [9] -0.05 | [10] -0.096 | Nexturastat A 0.039 | vemurafenib 0.037 | [11] -0.129 | [12] -0.089 | givinostat 0.014 | barasertib 0.035

DPM1 (UniProt O60762)
inactive: IRAK-1-4 Inhibitor I 0.041 | ibrutinib -0.022 | [1] -0.003 | ralimetinib -0.1 | [2] -0.04 | [3] -0.048 | [4] 0.041 | pinometostat 0.027 | [5] 0.002 | [6] 0.026 | [7] 0.022 | [8] 0.031 | [9] -0.004 | [10] 0.031 | Nexturastat A -0.022 | vemurafenib 0.036 | [11] 0.023 | [12] -0.018 | givinostat -0.004 | barasertib 0

EDEM1 (UniProt Q92611)
inactive: IRAK-1-4 Inhibitor I -0.03 | ibrutinib 0.124 | [1] 0.085 | ralimetinib -0.012 | [2] -0.051 | [3] -0.117 | [4] 0.068 | pinometostat 0.043 | [5] -0.065 | [6] 0.023 | [7] -0.012 | [8] 0.02 | [9] -0.01 | [10] -0.275 | Nexturastat A 0.037 | vemurafenib 0.04 | [11] 0.08 | [12] 0.08 | givinostat 0.073 | barasertib -0.063

ECE1 (UniProt P42892)
inactive: IRAK-1-4 Inhibitor I 0.057 | ibrutinib -0.033 | [1] -0.014 | ralimetinib -0.042 | [2] -0.001 | [3] -0.005 | [4] 0.058 | pinometostat -0.072 | [5] 0.102 | [6] -0.123 | [7] 0.087 | [8] 0 | [9] 0.022 | [10] -0.003 | Nexturastat A 0.085 | vemurafenib -0.094 | [11] 0.08 | [12] -0.053 | givinostat -0.023 | barasertib 0.018
